Measured data: PubChem BioAssay AID1159584 (Peter MacCallum Cancer Centre, 2016)
The deposit covers about 18,000 reagents; this is a part drawn at random. Not all columns of the deposit are shown. Not stated in the record: the amount of reagent, the time to read-out.

Screen: 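Genes whose loss is lethal only together with E-cadherin loss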 (primary screen)
System: human MCF10A breast epithelial cells, parental and CDH1-null
Reagent: siRNA against human genes
Detection: 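ATP luminescence (CellTiter-Glo) viability per line relative to mean mock wells over all plates, and the ratio of CDH1-null to parental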
Direction: CDH1-null / parental viability ratio: higher = CDH1-null cells survive relatively better than parental; CDH1-null viability vs mock: higher = more viable CDH1-null cells

DCBLD2 → CDH1-null / parental viability ratio: 0.85; CDH1-null viability vs mock (fraction of mock): 0.58
KLF2 → CDH1-null / parental viability ratio: 0.96; CDH1-null viability vs mock (fraction of mock): 0.77
HAO2 → CDH1-null / parental viability ratio: 1.04; CDH1-null viability vs mock (fraction of mock): 0.83
SLC29A2 → CDH1-null / parental viability ratio: 0.78; CDH1-null viability vs mock (fraction of mock): 0.67
MRPL24 → CDH1-null / parental viability ratio: 0.92; CDH1-null viability vs mock (fraction of mock): 0.72
ZNF596 → CDH1-null / parental viability ratio: 0.85; CDH1-null viability vs mock (fraction of mock): 0.7
VDAC2 → CDH1-null / parental viability ratio: 1.3; CDH1-null viability vs mock (fraction of mock): 0.78
SH3PXD2A → CDH1-null / parental viability ratio: 0.64; CDH1-null viability vs mock (fraction of mock): 0.42
CTAG1B → CDH1-null / parental viability ratio: 0.9; CDH1-null viability vs mock (fraction of mock): 0.54
PRAF2 → CDH1-null / parental viability ratio: 0.89; CDH1-null viability vs mock (fraction of mock): 0.59
NAA10 → CDH1-null / parental viability ratio: 0.87; CDH1-null viability vs mock (fraction of mock): 0.55
ATP5F1B → CDH1-null / parental viability ratio: 1.11; CDH1-null viability vs mock (fraction of mock): 0.8
CEP63 → CDH1-null / parental viability ratio: 0.93; CDH1-null viability vs mock (fraction of mock): 0.76
ELSPBP1 → CDH1-null / parental viability ratio: 1; CDH1-null viability vs mock (fraction of mock): 0.55
SLC25A32 → CDH1-null / parental viability ratio: 1.1; CDH1-null viability vs mock (fraction of mock): 1.01
DOK3 → CDH1-null / parental viability ratio: 0.85; CDH1-null viability vs mock (fraction of mock): 0.82
ULK2 → CDH1-null / parental viability ratio: 1.16; CDH1-null viability vs mock (fraction of mock): 0.86
GNPAT → CDH1-null / parental viability ratio: 1.01; CDH1-null viability vs mock (fraction of mock): 1.15
SRPRB → CDH1-null / parental viability ratio: 0.92; CDH1-null viability vs mock (fraction of mock): 0.82
EEF1A1 → CDH1-null / parental viability ratio: 1.14; CDH1-null viability vs mock (fraction of mock): 0.57
ILKAP → CDH1-null / parental viability ratio: 1.38; CDH1-null viability vs mock (fraction of mock): 0.91
ZNF570 → CDH1-null / parental viability ratio: 1.27; CDH1-null viability vs mock (fraction of mock): 1.12
YTHDF3 → CDH1-null / parental viability ratio: 1.13; CDH1-null viability vs mock (fraction of mock): 0.53
IMPDH2 → CDH1-null / parental viability ratio: 1.02; CDH1-null viability vs mock (fraction of mock): 1.1

Quoted from the listing for reference:
SRPRB → CDH1-null / parental viability ratio: 0.92; CDH1-null viability vs mock (fraction of mock): 0.82
EEF1A1 → CDH1-null / parental viability ratio: 1.14; CDH1-null viability vs mock (fraction of mock): 0.57
